{"source": "patent US20210024604A1", "about": "(Novo Nordisk A/S, priority 2009, published 2021)", "experiment": "peptide synthesis", "details": "lipidation step; for final HPLC purity: C8 column"}
{"substance": "B29N^ε-15-(4-Boronobenzenesulfonylamino)pentadecanoyl desB30 Human Insulin", "values": [{"measurement": "step yield", "value": 21, "unit": "%"}, {"measurement": "final HPLC purity", "setting": "acidic HPLC", "value": 99.3, "unit": "%"}, {"measurement": "final HPLC purity", "setting": "neutral HPLC", "value": 99.5, "unit": "%"}]}
